The target in test [1] is TuMV P1 bait (pBT3-STE) of the split-ubiquitin membrane yeast two-hybrid (Turnip mosaic virus (strain UK1)). In words: two-hybrid; split-ubiquitin membrane-based yeast two-hybrid (DUALmembrane), NMY51 yeast; TuMV proteins as bait in pBT3-STE, AtVSR4 as prey in pPR3-N; selection on SD-LWHA with 25 mM 3AT.
The target of test [2] is TuMV VPg bait (pBT3-STE) of the split-ubiquitin membrane yeast two-hybrid (Turnip mosaic virus (strain UK1)). The description is as above.
Test [3] concerns the target TuMV 6K2 bait (pBT3-STE) of the split-ubiquitin membrane yeast two-hybrid (Turnip mosaic virus (strain UK1)). The description is as above.
In test [4] the target is 3×flag-tagged TuMV VPg (Turnip mosaic virus (strain UK1)). In words: co-IP; proteins transiently co-expressed in N. benthamiana leaves; cleared lysates immunopurified with anti-Flag M2 gel, immunoblot with anti-Flag and anti-GFP or anti-myc antibodies. On the technique in general: In western blotting, separated proteins are transferred to a membrane and probed.
Test [5] has as its target 3×flag-tagged TuMV 6K2 (Turnip mosaic virus (strain UK1)). The test is described as above.
Test [6] addresses TuMV VPg, BiFC fusion with the C-terminal fragment of YFP (Turnip mosaic virus (strain UK1)). In words: split reporter; BiFC in N. benthamiana leaf cells by agroinfiltration; TuMV genes in p35S-gateway-YFP-C, host genes in p35S-YFP-N; confocal microscopy at 2 dpai.
The target in test [7] is TuMV 6K2^YC (BiFC fusion) (Turnip mosaic virus (strain UK1)). The test is described as above.
For test [8], the target named is TuMV P1, BiFC fusion with the C-terminal fragment of YFP (Turnip mosaic virus (strain UK1)). The test is described as above.

No constants are given. Whether binding was seen depends on the method and setting. For some assays here: Binding can be weak; no strength is given. For some assays here: In cells and extracts the contact can be indirect. For some assays here: Where a sequence is shown, tags or fusion partners need not be part of it.

B1: AtVSR4 prey (pPR3-N) of the split-ubiquitin membrane yeast two-hybrid (protein, UniProt Q56ZQ3 25-628)
chain: RFVVEKNSLSVTSPESIKGTHDSAIGNFGIPQYGGSMAGTVVYPKENQKSCKEFSDFSISFKSQPGALPTFLLVDRGDCFFALKVWNAQKAGASAVLVADNVDEPLITMDTPEEDVSSAKYIENITIPSALVTKGFGEKLKKAISGGDMVNLNLDWREAVPHPDDRVEYELWTNSNDECGVKCDMLMEFVKDFKGAAQILEKGGFTQFRPHYITWYCPHAFTLSRQCKSQCINKGRYCAPDPEQDFSSGYDGKDVVVENLRQLCVYKVANETGKPWVWWDYVTDFQIRCPMKEKKYNKDCAESVIKSLGIDSRKIDKCMGDPDADLDNPVLKEEQDAQVGKGTRGDVTILPTLVVNNRQYRGKLEKSAVLKALCSGFEESTEPAICLSTDMETNECLDNNGGCWQDKSANITACKDTFRGKVCVCPIVDGVRFKGDGYSHCEPSGPGRCTINNGGCWHEERDGHAFSACVDKDSVKCECPPGFKGDGVKKCEDINECKEKKACQCPECSCKNTWGSYECSCSGDLLYMRDHDTCISKTGSQVKSAWAAVWLIMLSLGLAAAGAYLVYKYRLRQYMDSEIRAIMAQYMPLDSQPEVPNHTNDERA
As for B1, the binding entry in test [1], in test [2] and in test [3] was “binds” each time.

B2: YFP-tagged AtVSR4 (protein, UniProt Q56ZQ3 25-628)
chain: B1 chain
As to B2, the results for the binding entry in test [4] and in test [5] were “no binding” and “binds”, respectively.

B3: AtVSR4^YN (BiFC fusion) (protein, UniProt Q56ZQ3 25-628)
chain: B1 chain
For the molecule B3, the values for the binding entry in test [6], in test [7] and in test [8] were “binds weakly”, “binds” and “no binding”, respectively.
